No constants are given. Whether binding was seen depends on the method and setting. Binding seen in cells or lysates may run through a third protein. Some entries that bind do so weakly or less than the wild type.

By UniProt entry, the sequences of proteins in these tests, tags left out.
UniProt P13864: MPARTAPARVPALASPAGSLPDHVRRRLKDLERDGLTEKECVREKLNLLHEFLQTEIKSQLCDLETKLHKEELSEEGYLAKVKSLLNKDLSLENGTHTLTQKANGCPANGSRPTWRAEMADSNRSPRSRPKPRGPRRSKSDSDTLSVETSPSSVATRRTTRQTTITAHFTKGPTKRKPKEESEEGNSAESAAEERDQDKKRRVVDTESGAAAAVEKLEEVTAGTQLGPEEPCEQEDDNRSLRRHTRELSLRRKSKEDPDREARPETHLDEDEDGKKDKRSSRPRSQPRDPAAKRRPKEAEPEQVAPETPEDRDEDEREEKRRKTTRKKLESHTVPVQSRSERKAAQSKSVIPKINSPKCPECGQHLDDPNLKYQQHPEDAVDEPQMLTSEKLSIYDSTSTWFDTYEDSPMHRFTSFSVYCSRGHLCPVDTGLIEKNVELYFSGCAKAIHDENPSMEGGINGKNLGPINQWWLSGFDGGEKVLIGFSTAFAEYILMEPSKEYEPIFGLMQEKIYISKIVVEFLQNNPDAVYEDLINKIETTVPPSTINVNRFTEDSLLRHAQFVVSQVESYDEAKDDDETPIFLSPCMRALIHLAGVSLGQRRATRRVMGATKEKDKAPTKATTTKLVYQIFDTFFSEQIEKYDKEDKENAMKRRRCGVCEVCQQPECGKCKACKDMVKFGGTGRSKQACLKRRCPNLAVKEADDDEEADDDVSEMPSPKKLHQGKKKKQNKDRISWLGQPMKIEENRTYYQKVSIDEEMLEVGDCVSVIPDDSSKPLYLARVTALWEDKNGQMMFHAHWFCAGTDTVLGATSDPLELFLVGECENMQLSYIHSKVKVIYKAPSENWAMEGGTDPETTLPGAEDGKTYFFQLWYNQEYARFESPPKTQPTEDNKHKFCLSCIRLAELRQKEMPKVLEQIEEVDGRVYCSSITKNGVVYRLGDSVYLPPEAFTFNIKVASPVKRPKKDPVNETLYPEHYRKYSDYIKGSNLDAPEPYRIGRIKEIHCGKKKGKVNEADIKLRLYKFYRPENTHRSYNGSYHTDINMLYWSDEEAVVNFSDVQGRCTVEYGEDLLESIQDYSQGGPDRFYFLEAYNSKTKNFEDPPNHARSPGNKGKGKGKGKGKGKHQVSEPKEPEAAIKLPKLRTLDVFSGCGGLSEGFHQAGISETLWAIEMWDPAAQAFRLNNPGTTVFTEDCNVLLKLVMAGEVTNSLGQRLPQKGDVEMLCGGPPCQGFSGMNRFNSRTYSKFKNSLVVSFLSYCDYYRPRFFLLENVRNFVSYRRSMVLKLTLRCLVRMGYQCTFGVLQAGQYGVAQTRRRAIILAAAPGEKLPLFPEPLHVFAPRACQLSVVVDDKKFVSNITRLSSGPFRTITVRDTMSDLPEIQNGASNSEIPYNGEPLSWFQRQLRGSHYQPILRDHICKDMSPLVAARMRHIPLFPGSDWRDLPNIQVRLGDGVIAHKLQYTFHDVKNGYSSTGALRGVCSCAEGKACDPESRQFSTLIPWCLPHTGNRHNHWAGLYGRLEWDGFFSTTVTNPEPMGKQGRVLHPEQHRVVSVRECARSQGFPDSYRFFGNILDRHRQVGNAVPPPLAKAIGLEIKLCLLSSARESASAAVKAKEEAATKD
UniProt P63085: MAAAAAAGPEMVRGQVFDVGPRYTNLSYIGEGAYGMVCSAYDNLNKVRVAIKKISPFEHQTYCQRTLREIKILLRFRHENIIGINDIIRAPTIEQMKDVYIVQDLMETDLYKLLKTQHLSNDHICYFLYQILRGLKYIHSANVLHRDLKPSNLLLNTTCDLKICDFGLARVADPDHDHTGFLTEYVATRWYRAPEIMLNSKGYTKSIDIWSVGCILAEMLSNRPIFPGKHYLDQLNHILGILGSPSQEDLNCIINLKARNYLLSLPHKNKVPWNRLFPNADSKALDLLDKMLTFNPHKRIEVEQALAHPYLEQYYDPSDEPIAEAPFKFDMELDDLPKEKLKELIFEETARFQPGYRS
UniProt Q63844: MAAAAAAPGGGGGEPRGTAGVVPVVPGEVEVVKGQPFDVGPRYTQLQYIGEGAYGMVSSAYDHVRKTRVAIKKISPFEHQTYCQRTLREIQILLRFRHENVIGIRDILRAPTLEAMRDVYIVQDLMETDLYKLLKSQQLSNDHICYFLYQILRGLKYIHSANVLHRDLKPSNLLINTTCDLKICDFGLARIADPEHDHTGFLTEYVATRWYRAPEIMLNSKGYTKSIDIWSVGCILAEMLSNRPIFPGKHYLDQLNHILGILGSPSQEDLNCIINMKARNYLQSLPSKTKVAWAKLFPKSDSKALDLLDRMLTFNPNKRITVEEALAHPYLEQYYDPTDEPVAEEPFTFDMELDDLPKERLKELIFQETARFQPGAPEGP

This note sets out measurements from PMC9958980.

In test [1] the target is Flag-DNMT1 fusion protein (mouse DNA methyltransferase (cytosine-5) 1, wild type) (mouse) (UniProt P13864). Briefly: co-IP; HEK293T co-transfected with p3×Flag-CMV-10-DNMT1 and pCMV-HA-ERK1; Flag-DNMT1 captured by anti-Flag antibody, mouse IgG as negative control; blot with anti-Flag and anti-HA; cells treated with DMSO or PD0325901 (PD enhances the interaction).
For test [2], the target named is ERK2 (as tested against PGC7) (mouse) (UniProt P63085). Briefly: co-IP; PGC7 with ERK1/2 (Supplementary Figure S2a,b); whole cell extracts in IP lysis buffer, antibody overnight at 4 °C, protein A/G plus agarose; cells, tags and bait not told.
The target in test [3] is ERK1 (as tested against PGC7) (mouse) (UniProt Q63844). Described as above.

With “HA-ERK1 (mouse ERK1 from pCMV-HA-ERK1) (from UniProt Q63844 1-380) (enzyme)”, the binding entry in test [1] is “binds weakly”.

B1: PGC7 (protein, UniProt Q8QZY3 1-150)
chain: MEEPSEKVDPMKDPETPQKKDEEDALDDTDVLQPETLVKVMKKLTLNPGVKRSARRRSLRNRIAAVPVENKSEKIRREVQSAFPKRRVRTLLSVLKDPIAKMRRLVRIEQRQKRLEGNEFERDSEPFRCLCTFCHYQRWDPSENAKIGKN
As for B1, the binding entry in test [2] and in test [3] was “no binding” in each case.
